Assay results published in patent publication US20090186814A1, “Methods and Compositions for Reducing Ischemia-Derived Microvascular Damage” (priority 2005, published 2009).
Where two headings read alike, the source gives them in different places.

Experiments:
[1] = test system: mouse hearts; experiment: Ex vivo model of global ischemia and reperfusion injury, Langendorff-perfused mouse hearts (WT and δV1-1 transgenic); settings: coronary flow 3 mL/minute, n=5
Description: Transgenic mice (TG) that selectively express δV1-1 in myocytes were created using α- myosin heavy chain promoter. Hah, H. S., et al., Circ. Res. 91:741-748 (2002). Hemodynamic and morphometric parameters in these transgenic mice, as measured by echocardiographic measurements in vivo, were not different from those measured in wild type mice (WT). Inagaki, K., et al., Circulation 108:869-875 (2003). Mice were heparinized (4000U/kg IP) and anesthetized with sodium pentobarbital (200mg/kg IP). Hearts were perfused with an oxygenated Krebs-Henseleit buffer at 37° C. in a Langendorff system as previously described in Inagaki, K., et al., Circulation 108:869-875 (2003). Hearts were subjected to a 30-minute global ischemia and a 120-minute full reperfusion. […] CPP was measured through a sidearm in the Langendorff system. […]
At the end of the reperfusion, 1 -mm-thick transverse sections of mouse hearts were incubated in triphenyltetrazolium chloride solution (TTC) (1% in phosphate buffer, pH 7.4) at 37° C. for 15 minutes as described in Inagaki, K. et al., Circulation 108:869-875 (2003) to determine the viable myocardium. […] Infarct size was expressed as a percentage of the total area at risk. […] TUNEL-positive nuclei were counted in a total of 1,500 myocytes and 500 of endothelial cells over several random fields.
Data are expressed as mean±SEM. […]

[2] = test system: Yorkshire swine; format: in vivo, pig
Description: Yorkshire swine (30-45kg) were maintained during the every procedure under anesthesia by inhaled isoflurane (1-2%). A bolus of 300 IU/kg heparin was administered intravenously through the sheath (6 French) placed in the carotid artery. A 10 mm, over-the-wire angioplasty balloon was placed in the left anterior descending artery (LAD) proximal to the first diagonal branch. The balloon was inflated to occlude the LAD for 30 minutes. At the last 1 minute of a 30-minute ischemia, Tat-conjugated δV1-1 (250 ng/kg) or saline was infused at 1 mL/minute for 1 minute through the guide-wire lumen of the balloon catheter (n=9 for each group). Left ventriculogram (LVG) was obtained (40° left anterior oblique projection, 30 frames/sec) to measure cardiac function at 5 time points; before ischemia (baseline), 30 minutes, 24 hours, 5 days, and 10 days after ischemia (n=9 for each group). Ejection fraction (EF) and hypokinetic area were calculated using the software (Plus Plus, Sanders Data System, Calif.) with elimination of frames after premature ventricular contraction beats. Blood pressure and heart rate were measured just before LVG measurements at each time point through the water-filled catheter (Table 1). Coronary flow was measured by a 0.014″ Doppler-tipped guide wire (Flowire, JOMED Inc.) in the LAD, and the unaffected, left circumflex artery (LCx). The wire tip was placed 2 cm distal from the balloon-occluded site in the LAD. After stable baseline flow velocity was recorded, adenosine [endothelium-independent vasodilator; 48 μg; Suryapranata, H., et al., Circulation 89:1109-1117 (1994)] was infused intracoronarily to induce hyperemia (a transient increase in coronary blood flow through microvascular vasodilation) at 5 time points: before ischemia (baseline), 30 minutes, 24 hours, 5 days, and 10 days after ischemia (n=9 for each group). Bradykinin [endothelium-dependent vaodilator, 0.2ml of a 3×10^−6M in saline; Rodriguez-Sinovas, A., et al., J. Appl. Physiol. 95:81-88 (2003)] was also infused intracoronary before ischemia and 24 hours after reperfusion (n=6 for each group). Coronary flow reserve was calculated by dividing the average peak velocity (APV) at hyperemic phase by the baseline APV as described in Suryapranata, H., et al., Circulation 89:1109-1117 (1994). After reperfusion, to determine the area at risk in porcine hearts, LAD ligation was performed at the balloon-occluded site and Evan's Blue (0.0025%) was perfused as previously described in Inagaki, K., et al., Circulation 2304-2307 (2003). All other methods were performed as described in Example 1.

Substance: δV1-1: δPKC inhibitor peptide, SEQ ID NO:1 (SFNSYELGSL), amino acids 8-17 of rat δPKC; used Tat-conjugated in the examples (Tat conjugate in examples; listed as Rattus norvegicus)
- initial coronary perfusion pressure ([1]; TG+δV1-1 group): 64.6±5.4 mmHg
- initial coronary perfusion pressure ([1]; WT+δV1-1 group): 61.0±4.6 mmHg
- BP (Dia) ([2]; 30 min R): 57 ± 3 mmHg
- BP (Sys) ([2]; 30 min R): 87 ± 4 mmHg
- HR ([2]; 30 min R (reperfusion)): 90 ± 3 bpm
- BP (Dia) ([2]; 24 hr R): 66 ± 13 mmHg
- BP (Sys) ([2]; 24 hr R): 101 ± 8 mmHg
- HR ([2]; 24 hr R): 103 ± 11 bpm
- BP (Dia) ([2]; 5 days R): 68 ± 3 mmHg
- BP (Sys) ([2]; 5 days R): 97 ± 5 mmHg
- HR ([2]; 5 days R): 98 ± 6 bpm
- BP (Dia) ([2]; 10 days R): 60 ± 3 mmHg
- BP (Sys) ([2]; 10 days R): 94 ± 6 mmHg
- HR ([2]; 10 days R): 90 ± 7 bpm
